{
  "source": "patent US20070014761A1",
  "binders": {"B1": {"name": "zsig81-Cflag (ligand)", "chain": "SMCHRWSRAVLFPAAHRPKRSSSLPLNPVLQTSLEEVELLYEFLLAELEISPDLQISIKDEELASLRKASDFRTVCNNVIPKSIPDIRRLSASLSSHPGILKKEDFERTVLTLAYTAYRTALSHGHQKDIWAQSLVSLFQALRHDLMRSSQPGVPPDYKDDDDK"}},
  "key": {"[1]": {"biological_target": "IL12p35-Chis (human)", "test": "co-immunoprecipitation, western blot"}, "[2]": {"biological_target": "IL12p35-Chis (human)", "test": "co-immunoprecipitation from conditioned medium of co-transfected 293T cells (Ni NTA-agarose pulls down zsig81-Cflag; anti-FLAG-agarose captures IL12p35Chis), western blot"}},
  "note": "Results are given in words; binding and its absence hold for the method and conditions named. Binding seen in cells or lysates may run through a third protein. Binding calls can cover weak binding; strength is not graded here. Where a sequence is shown, tags or fusion partners need not be part of it.",
  "data": [
    {"binder": "B1", "values": [
      {"measurement": "binding", "setting": "[1]", "value": "binds"},
      {"measurement": "binding", "setting": "[2]", "value": "binds"}
    ]}
  ]
}
